Here are results for 67 compounds from PubChem BioAssay AID662 (National Center for Advancing Translational Sciences (NCATS), 2007).

The structures appear in SMILES notation. The list shows a part of the results. These are further read-outs of the screen, such as a control signal, another cell line or another target. No call is given for them. The list favours compounds with an active or inconclusive main result. Potencies come from curve fits of mixed quality, noted in brackets.

The experiment in a line: Cell signaling CRE-BLA (Fsk stim). The following applies: CHO CRE-bla reporter (cAMP response element driving beta-lactamase), forskolin EC10, beta-lactamase ratio; measured here: 460 nm blue channel. Put shortly: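 Modulation of forskolin-driven signalling is measured in CHO cells carrying a CRE-controlled beta-lactamase reporter. Cells are stimulated with EC10 NKH 477 in the presence of titrated compound for 3 h at 37 °C, then loaded with CCF4 for 2 h at room temperature.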
For the compound `O=C(OCCN1C(=O)c2ccccc2C1=O)C1CCN(S(=O)(=O)c2cccs2)CC1`, the half-maximal activity concentration (AC50) (usually the midpoint of the concentration-response curve, whichever way the signal moves) was 15.8 µM [rising, single point].

`Cc1noc(C)c1-c1nc(NCc2cccs2)c2ccccc2n1`: the AC50 was 10 µM [rising, partial curve]. The figure for `CC(C)C[C@@H](CC(=O)N[C@@H](CCC(=O)O)CC(=O)O)NC(=O)[C@@H]1CNCC[C@H]1NC(=O)C[C@H](CCCN)NC(=O)C[C@H](Cc1ccccc1)NC(=O)[C@@H]1CCCC[C@H]1N` is 10 µM [falling, full curve, poor fit]; for `CC1CCc2sc3nc(N4CCN(CCO)CC4)n4ncnc4c3c2C1` (configuration not stated) it is 12.6 µM [rising, partial curve]. The figure for `CC(=O)N(C)c1ccc(NC(=O)c2cnn(C)c2)cc1` is 0.1 µM [falling, full curve, poor fit]; for `CCc1nc(SCC(=O)Nc2cc(C)on2)c2c(=O)n(C)c(=O)n(C)c2n1` it is 5.01 µM [rising, partial curve]; for `COCCN1Cc2cccc(C(=O)Nc3ccc(C)c(C)c3)c2C1=O` it is 0.251 µM [rising, full curve]. The figure for `COC(=O)c1sccc1NC(=O)c1ccoc1C` is 10 µM [rising, partial curve]; for `CC1(C)CC(=O)C=C(NCCCN2CCCC2=O)C1` it is 3.98 µM [falling, single point]; for `CCCC(=O)N(c1ccc2oc(=O)sc2c1)S(=O)(=O)c1ccccc1` it is 5.01 µM [falling, partial curve, poor fit]. With `CC(C)n1c(NCc2cc(Cl)ccc2O)nc2ccccc21`, the AC50 is 25.1 µM [falling, single point].

Take `Cc1cnc(CNc2ccnc(-c3c(C)noc3C)n2)cn1`: the AC50 was 10 µM [rising, partial curve]. Take `CCOc1ccccc1N1CCN(S(=O)(=O)c2ccc3c4c(cccc24)C(=O)N3)CC1`: the AC50 is 12.6 µM [rising, single point]. The figure for `CC(CCc1ccco1)NC(=O)c1cc2c(-c3ccccc3F)nn(C)c2s1` (configuration not stated) is 2 µM [rising, partial curve]; for `CN(C)c1ccc(-c2ccc3ncnc(NC4CC4)c3c2)cc1` it is 6.31 µM [rising, partial curve]; for `COc1ccc(C(=O)OCCN=C2NS(=O)(=O)c3ccccc32)cc1OC` it is 12.6 µM [rising, single point]. The figure for `O=C(COc1cccc(OC(F)F)c1)Nc1ccc(SC(F)F)cc1` is 5.01 µM [falling, partial curve]; for `CCOC(=O)c1sc(NC(=O)CSc2ncn[nH]2)c(C#N)c1C` it is 12.6 µM [falling, single point]; for `O=C1CCCC2=C1C1(CCCCC1)N=C(Nc1nc3ccccc3o1)N2` it is 2 µM [rising, full curve].

Consider `CCNc1ncc2nc(-c3ccc(F)cc3)c(=O)n(C[C@H]3CCCO3)c2n1`, for which the AC50 was 2 µM [rising, full curve].

On to `CCCS(=O)(=O)N1CCC(C(=O)N2CCN(C(=O)OCC)CC2)CC1`, for which the AC50 was 25.1 µM [rising, single point]. In the case of `COc1cc(NC(=O)C2CC(c3cccc(OC)c3OC)=NO2)cc(OC)c1OC` (configuration not stated), the AC50 is 10 µM [rising, partial curve]. Consider `CCOC(=O)Cc1c(C)nc2c(C#N)c(C)nn2c1C`, for which the AC50 is 25.1 µM [rising, single point]. The figure for `O=C(O)[C@@H](O)[C@@H](O)[C@H](O)[C@H](O)CO` is 1 µM [falling, single point]; for `COc1nc(-c2ccccc2)ccc1-c1noc(COc2ccccc2)n1` it is 0.00316 µM [falling, full curve, poor fit]; for `COc1ccc(S(=O)(=O)NCCSCc2ccco2)cc1` it is 10 µM [falling, partial curve]. In the case of `Cc1cc(C(C)(C)C)cc(C)c1CC1=NCCN1`, the AC50 is 5.01 µM [falling, partial curve, poor fit].

As to `Cc1cc(=O)cc(C)n1-c1ccc2c(c1)nc(C)n2-c1ccccc1`, the AC50 is 3.98 µM [falling, single point].

With `Cc1cc(CC(C)C)n(-c2nc3ccccc3c(=O)n2OCC(=O)N(C)C)n1`, the AC50 was 10 µM [rising, single point]. In the case of `Cc1cc(NCCCN2CCOCC2)n2nc(C)c(-c3ccc(F)cc3)c2n1`, the AC50 was 0.2 µM [falling, full curve]. Next, `COC(=O)c1cc(COc2ccc3ccc(=O)oc3c2)c(C)o1`: 0.00794 µM [falling, full curve, poor fit]; `CCn1c(SCC(=O)OC)nc2sc3c(c2c1=O)CCC3`: 12.6 µM [rising, partial curve]. The figure for `O=C(Nc1ccccc1)Nc1ccc(S(=O)(=O)N2CCCCC2)cc1` is 12.6 µM [falling, single point].

For the compound `CC1Cc2ccccc2N1Cc1nc2scc(-c3cccs3)c2c(=O)[nH]1` (configuration not stated), the AC50 is 7.94 µM [falling, partial curve]. With `O=C(Nc1ccccc1-c1nc2ccccc2s1)c1ccco1`, the AC50 is 2.51 µM [rising, full curve]. As to `CCOC(=O)c1sc(NC(=O)C2CC2)cc1C`, the AC50 is 10 µM [rising, partial curve]. The figure for `CCCCN1C(=O)/C(=C2\SC(N3CCCCC3)=NC2=O)c2ccccc21` is 10 µM [rising, partial curve]; for `O=C(O)CCC(=O)CCC(=O)c1ccccc1` it is 0.398 µM [falling, full curve, poor fit]; for `Cc1cc(NS(=O)(=O)c2ccc(NC(=O)CCN3C(=O)c4ccccc4C3=O)cc2)no1` it is 25.1 µM [rising, single point]. Regarding `Cc1ccc(-n2nnnc2SCCNS(=O)(=O)c2ccccc2)cc1C`, the AC50 is 1.26 µM [rising, partial curve, poor fit]. `O=C(c1cnn2c(C(F)(F)F)cc(-c3ccco3)nc12)N1CCCCCC1`: the AC50 was 12.6 µM [rising, single point]. Next, `CCOC(=O)N1CCN(C(=O)c2cc3c(=O)n(C)c4ccccc4c3n2C)CC1`: 7.94 µM [rising, partial curve]; `COc1cc(NC(=O)c2ccc(-c3ccc(Br)cc3)o2)ccc1NC(=O)C(C)C`: 2.51 µM [rising, full curve]. Consider `COc1ccc(N2CCN(C(c3cc(OC)ccc3OC)c3nnnn3Cc3ccco3)CC2)cc1` (configuration not stated), for which the AC50 was 10 µM [rising, single point]. On to `COc1ncc2nc(-c3cccs3)c(=O)n(Cc3cccs3)c2n1`, for which the AC50 was 3.98 µM [rising, full curve]. Next, `Cc1cc(C)n2nc3ccccc3c2n1`: 5.01 µM [rising, partial curve]. The figure for `O=C(Cc1nc2ccccc2[nH]1)NCc1ccco1` is 12.6 µM [rising, single point]; for `Cc1ccc(C)c(C(=O)CSc2n[nH]c(C)n2)c1` it is 0.316 µM [falling, full curve]; for `CCNc1oc(-c2cccc3ccccc23)nc1C#N` it is 12.6 µM [rising, partial curve].

As for `Cc1ccccc1N(CC(=O)NCCc1ccccc1)C(=O)c1ccc(N2CCCC2)nc1`, the AC50 was 0.126 µM [falling, full curve].

`c1ccc(-c2nnc(N3CCOCC3)nc2-c2ccccc2)cc1`: the AC50 is 2.51 µM [rising, partial curve]. Next, `CC1CCN(C(=O)Cn2c(=O)n(CCc3ccccc3)c(=O)c3ccccc32)CC1`: 0.0398 µM [falling, full curve].

With `O=C(NCCC1=CCCCC1)NC1CCCCC1`, the AC50 was 0.00501 µM [falling, full curve]. Regarding `CC1(C)[C@@H](O)CC[C@@]2(C)[C@H]1CC[C@]1(C)[C@H]2C(=O)C=C2[C@@H]3C[C@@](C)(C(=O)O)CC[C@]3(C)CC[C@@]21C`, the AC50 is 31.6 µM [falling, partial curve].

As for `COC(=O)[C@@]1(Cc2ccccc2)[C@H]2c3cc(C(=O)N4CCCC4)n(CCSCCO)c3C[C@H]2CN1C(=O)c1ccccc1`, the AC50 was 0.501 µM [rising, full curve, poor fit]. For `COc1ccc2nc(/N=C\N(C)C)sc2c1`, the AC50 was 0.00398 µM [falling, full curve]. With `CCc1nc(SCC(=O)c2cc(C)ccc2C)n[nH]1`, the AC50 is 1 µM [falling, full curve, poor fit]. The figure for `Cc1noc(C)c1-c1cc(Nc2ccccc2)ncn1` is 6.31 µM [rising, partial curve]. For `CC(C)(C)c1ccc(C(=O)CSc2ncn[nH]2)cc1`, the AC50 is 12.6 µM [falling, single point]. For the compound `CCCn1c(N)c(C(=O)CSc2nc3ccccc3n2CCC#N)c(=O)n(C)c1=O`, the AC50 was 1.58 µM [rising, full curve]. As to `CCCCn1c(=S)[nH]c2ncccc2c1=O`, the AC50 is 1 µM [rising, full curve, poor fit]. Next, `O=C(Nc1ccc(N2CCCC2)c(Cl)c1)c1ccc(Br)o1`: 0.794 µM [rising, single point]. Take `COc1cccc(-c2cc(NCc3ccccc3OC)ncn2)c1`: the half-maximal activity concentration (AC50) was 10 µM [rising, partial curve]. Next, `C=CCn1cc(C(=O)NCC2CCCO2)c(=O)c2cc(S(=O)(=O)N3CCCCCC3)ccc21` (configuration not stated): 3.98 µM [rising, partial curve]. In the case of `O=C(O)c1cc(=O)c2c(Cl)cc(Cl)cc2[nH]1`, the AC50 is 31.6 µM [falling, single point]. The figure for `Cc1ccc(S(=O)(=O)N2CCC(C(=O)N[C@H](C(=O)NCC3CCCO3)C(C)C)CC2)cc1` (some centres not stated) is 0.316 µM [falling, full curve, poor fit].

Regarding `CCCNc1nc2c(c(=O)[nH]c(=O)n2C)n1Cc1ccc(F)cc1`, the AC50 is 7.94 µM [rising, partial curve].
